{"sequences": {"note": "The chains behind the UniProt entries cited, without tags or fusion partners.", "UniProt Q96GD4, whole entry": "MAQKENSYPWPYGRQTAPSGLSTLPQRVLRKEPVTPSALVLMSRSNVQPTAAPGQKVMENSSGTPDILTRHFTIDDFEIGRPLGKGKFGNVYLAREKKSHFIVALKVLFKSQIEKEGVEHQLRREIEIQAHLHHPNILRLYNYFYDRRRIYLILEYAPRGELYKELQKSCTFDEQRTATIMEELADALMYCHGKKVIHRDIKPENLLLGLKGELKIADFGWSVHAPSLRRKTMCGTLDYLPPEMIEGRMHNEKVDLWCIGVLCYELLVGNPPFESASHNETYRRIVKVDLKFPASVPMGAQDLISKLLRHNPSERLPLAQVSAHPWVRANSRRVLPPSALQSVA"}, "source": "patent US8946282B2", "about": "“Indolin-2-one derivatives as protein kinase inhibitors” (Annji Pharmaceutical Co., Ltd., priority 2012, dated 2015)", "note": "Some results were stated once for a whole list of compounds, not compound by compound."}
{"target": "aurora B (Homo sapiens, UniProt Q96GD4)", "assay": "radioisotope-based P81 filter-binding assay, aurora B kinase", "assay_type": "biochemical", "conditions": "SI=IC50 for FLT-3 or other aurora kinases/IC50 for aurora B kinase", "procedure": "Compounds of formula (I)-(IV) were evaluated for abilities in inhibiting protein kinases aurora B and FLT-3 activity using radioisotope-based P81 filter-binding assay (Table 1)."}
{"smiles": "COc1ccc(C(=O)NC(=O)Nc2cc3c(cc2F)/C(=C/c2[nH]c(C)c(C(=O)O)c2C)C(=O)N3)cc1", "note": "[D49]", "selectivity index (SI), aurora B over FLT-3 and other aurora kinases": "more than 150 fold"}
{"smiles": "COc1ccc(C(=O)NC(=O)Nc2cc3c(cc2F)/C(=C/c2[nH]c(C)c(CC(=O)O)c2C)C(=O)N3)cc1", "note": "[D50, (Z)-2-(5-((5-fluoro-6-(3-(4-methoxybenzoyl)ureido)-2-oxoindolin-3-ylidene)-methyl)-2,4-dimethyl-1H-pyrrol-3-yl)acetic acid]", "selectivity index (SI), aurora B over FLT-3 and other aurora kinases": "more than 150 fold"}
{"smiles": "O=C(NC(=O)c1ccccc1F)Nc1ccc2c(c1)NC(=O)/C2=C\\c1ccc[nH]1", "note": "[D52, (Z)—N-(3-((1H-pyrrol-2-yl)methylene)-2-oxoindolin-6-ylcarbamoyl)-2-fluorobenzamide]", "selectivity index (SI), aurora B over FLT-3 and other aurora kinases": "more than 150 fold"}
{"smiles": "O=C1Nc2cc(NC(=O)N3CCN(c4ccccc4F)C3=O)ccc2/C1=C/c1ccc[nH]1", "note": "[D90, (Z)—N-(3-((1H-pyrrol-2-yl)methylene)-2-oxoindolin-6-yl)-3-(2-fluorophenyl)-2-oxoimidazolidine-1-carboxamide]", "selectivity index (SI), aurora B over FLT-3 and other aurora kinases": "more than 150 fold"}
{"smiles": "COc1ccc(N2CCN(C(=O)Nc3ccc4c(c3)NC(=O)/C4=C\\c3ccc[nH]3)C2=O)c(F)c1", "note": "[D94, (Z)—N-(3-((1H-pyrrol-2-yl)methylene)-2-oxoindolin-6-yl)-3-(2-fluoro-4-methoxyphenyl)-2-oxoimidazolidine-1-carboxamide]", "selectivity index (SI), aurora B over FLT-3 and other aurora kinases": "more than 150 fold"}
